Measurements from patent US20220387602A1, “BIFUNCTIONAL DEGRADERS AND THEIR METHODS OF USE” (NOVARTIS AG, priority 2019, published 2022).
The match of structure and compound is tentative.

Sequences of proteins named here, by UniProt entry; tags and fusion partners are left off.
UniProt Q96SW2, whole entry: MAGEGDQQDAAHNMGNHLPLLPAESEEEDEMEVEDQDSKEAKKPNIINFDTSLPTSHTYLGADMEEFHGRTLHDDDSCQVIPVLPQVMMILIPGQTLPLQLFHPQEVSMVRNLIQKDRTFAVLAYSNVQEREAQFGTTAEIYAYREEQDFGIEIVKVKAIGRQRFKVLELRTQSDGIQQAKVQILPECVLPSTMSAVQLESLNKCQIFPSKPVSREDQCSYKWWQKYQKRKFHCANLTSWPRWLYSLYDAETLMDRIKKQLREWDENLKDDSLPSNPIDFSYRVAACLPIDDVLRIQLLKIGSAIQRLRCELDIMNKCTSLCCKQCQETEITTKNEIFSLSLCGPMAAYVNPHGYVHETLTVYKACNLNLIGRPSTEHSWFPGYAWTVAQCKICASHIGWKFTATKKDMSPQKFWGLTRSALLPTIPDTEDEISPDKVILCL
UniProt Q06187, whole entry: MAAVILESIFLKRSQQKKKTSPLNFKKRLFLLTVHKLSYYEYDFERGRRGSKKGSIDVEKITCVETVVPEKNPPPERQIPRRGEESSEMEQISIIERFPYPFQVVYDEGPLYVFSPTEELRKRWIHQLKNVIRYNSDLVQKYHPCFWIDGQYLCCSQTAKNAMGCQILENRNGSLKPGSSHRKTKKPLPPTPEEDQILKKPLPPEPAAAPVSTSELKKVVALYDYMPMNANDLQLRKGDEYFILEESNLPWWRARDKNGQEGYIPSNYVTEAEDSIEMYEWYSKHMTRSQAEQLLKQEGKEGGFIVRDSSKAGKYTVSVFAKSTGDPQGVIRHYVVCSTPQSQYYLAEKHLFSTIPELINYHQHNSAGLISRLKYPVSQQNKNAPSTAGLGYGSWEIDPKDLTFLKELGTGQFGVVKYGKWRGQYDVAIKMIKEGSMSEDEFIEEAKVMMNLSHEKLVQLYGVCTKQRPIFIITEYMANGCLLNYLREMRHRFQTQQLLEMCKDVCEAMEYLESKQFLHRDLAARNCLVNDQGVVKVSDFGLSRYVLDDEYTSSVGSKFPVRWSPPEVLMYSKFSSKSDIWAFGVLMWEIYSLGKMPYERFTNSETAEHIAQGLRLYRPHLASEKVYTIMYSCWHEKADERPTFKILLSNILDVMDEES

Experiments:
[1] = biological target: CRBN (Homo sapiens, UniProt Q96SW2); experiment: CRBN displacement assay Format 1 (fluorescence polarization, BodipyFL-lenalidomide probe Compound HH); conditions: read-out: CRBN AC50 [μM] Format1; bifunctional degraders, Table 5
[2] = biological target: BTK (Homo sapiens, UniProt Q06187); experiment: BTK-GFP protein abundance flow cytometry assay in HEK293A; type: cell-based; conditions: % protein remaining at the concentration at which maximum degradation is seen, 24 h

COc1ccc(C(=O)N2CCC3(CCN(Cc4ccc(-c5cc6c(-c7cc(F)cc(NC(=O)c8ccc(C(C)(C)O)cc8F)c7C)ncnc6[nH]5)cc4)CC3)CC2)cc1N1CCC(=O)NC1=O
AC50 [1]: 0.587 µM | BTK degradation Amax [2]: 4.5%
